Assay results published in article PMC3984170.
These are yes or no findings as the source states them, for the method shown. In cells and extracts the contact can be indirect. Some binding calls cover weakened binding; strength is not graded here. Blank lines part the entries; values can stand above or below the substance they belong to.

Chains of the proteins cited; added tags and fusions are not shown. Lines headed by an entry give the natural chain unless they say otherwise; changes in a name come on top. A line that says so, or that is headed by a name, gives the form on record, which may keep a tag or linker.
UniProt P08047: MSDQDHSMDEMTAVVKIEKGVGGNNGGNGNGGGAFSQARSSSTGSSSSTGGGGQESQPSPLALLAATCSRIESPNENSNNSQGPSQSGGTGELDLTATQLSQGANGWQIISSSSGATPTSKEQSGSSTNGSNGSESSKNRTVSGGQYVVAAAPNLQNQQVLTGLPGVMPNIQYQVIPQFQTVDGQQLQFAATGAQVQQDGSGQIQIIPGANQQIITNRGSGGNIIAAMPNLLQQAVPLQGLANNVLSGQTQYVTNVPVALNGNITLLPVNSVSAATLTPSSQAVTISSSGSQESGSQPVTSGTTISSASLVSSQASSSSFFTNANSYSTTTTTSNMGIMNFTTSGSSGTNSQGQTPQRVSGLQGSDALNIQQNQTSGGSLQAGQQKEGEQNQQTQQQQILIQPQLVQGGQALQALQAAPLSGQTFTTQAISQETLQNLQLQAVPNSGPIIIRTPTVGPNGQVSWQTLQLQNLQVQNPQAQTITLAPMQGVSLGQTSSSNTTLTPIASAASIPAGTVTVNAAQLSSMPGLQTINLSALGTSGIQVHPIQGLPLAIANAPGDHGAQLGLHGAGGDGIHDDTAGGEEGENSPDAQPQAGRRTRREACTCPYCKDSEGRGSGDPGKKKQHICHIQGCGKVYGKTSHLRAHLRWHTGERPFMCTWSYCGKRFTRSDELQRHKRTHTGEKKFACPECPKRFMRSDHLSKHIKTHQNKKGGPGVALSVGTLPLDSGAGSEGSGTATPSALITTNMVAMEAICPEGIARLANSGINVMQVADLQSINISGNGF
UniProt P29590: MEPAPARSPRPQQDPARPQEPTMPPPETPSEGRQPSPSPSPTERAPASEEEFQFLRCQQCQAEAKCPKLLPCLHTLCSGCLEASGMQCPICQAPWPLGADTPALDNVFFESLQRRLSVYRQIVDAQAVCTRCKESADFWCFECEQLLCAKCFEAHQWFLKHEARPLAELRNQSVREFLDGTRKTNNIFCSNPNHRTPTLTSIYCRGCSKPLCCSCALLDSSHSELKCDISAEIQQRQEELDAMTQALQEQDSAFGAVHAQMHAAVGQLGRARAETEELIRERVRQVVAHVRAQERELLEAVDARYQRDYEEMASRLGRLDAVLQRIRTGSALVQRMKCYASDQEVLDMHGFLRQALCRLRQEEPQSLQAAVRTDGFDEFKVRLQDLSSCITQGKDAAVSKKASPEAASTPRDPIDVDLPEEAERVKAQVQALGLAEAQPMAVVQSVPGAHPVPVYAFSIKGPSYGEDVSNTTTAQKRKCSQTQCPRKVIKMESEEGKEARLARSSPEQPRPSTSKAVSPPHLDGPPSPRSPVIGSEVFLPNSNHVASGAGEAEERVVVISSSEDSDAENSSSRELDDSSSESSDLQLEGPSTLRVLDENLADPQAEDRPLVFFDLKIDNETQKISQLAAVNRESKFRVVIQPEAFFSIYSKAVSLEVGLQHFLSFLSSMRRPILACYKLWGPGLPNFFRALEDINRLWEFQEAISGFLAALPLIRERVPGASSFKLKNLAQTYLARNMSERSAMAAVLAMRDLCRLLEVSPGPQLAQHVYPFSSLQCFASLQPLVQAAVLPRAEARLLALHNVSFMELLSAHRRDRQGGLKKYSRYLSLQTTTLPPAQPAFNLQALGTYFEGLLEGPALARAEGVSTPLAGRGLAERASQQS
PML4 (transfected into PML-/- MEFs) (P29590-5, form named): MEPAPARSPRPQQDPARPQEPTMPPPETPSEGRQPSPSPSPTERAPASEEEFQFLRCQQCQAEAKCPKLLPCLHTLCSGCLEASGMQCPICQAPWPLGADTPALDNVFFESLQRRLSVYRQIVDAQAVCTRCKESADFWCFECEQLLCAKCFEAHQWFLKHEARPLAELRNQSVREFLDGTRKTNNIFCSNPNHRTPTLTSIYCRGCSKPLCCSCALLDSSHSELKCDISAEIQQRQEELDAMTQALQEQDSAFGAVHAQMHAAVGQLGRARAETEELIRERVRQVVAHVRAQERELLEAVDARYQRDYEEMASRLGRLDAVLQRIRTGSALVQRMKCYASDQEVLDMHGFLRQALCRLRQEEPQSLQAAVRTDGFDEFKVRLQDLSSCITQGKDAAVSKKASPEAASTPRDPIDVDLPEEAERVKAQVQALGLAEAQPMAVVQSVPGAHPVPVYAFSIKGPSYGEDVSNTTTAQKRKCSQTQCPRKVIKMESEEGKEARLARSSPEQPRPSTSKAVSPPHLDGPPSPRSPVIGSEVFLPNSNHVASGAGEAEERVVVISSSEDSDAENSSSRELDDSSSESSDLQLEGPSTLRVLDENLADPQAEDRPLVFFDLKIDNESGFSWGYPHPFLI

Tests used:
[1] = target: Sp1 (endogenous, human cells) (human (endogenous in U2OS and SiHa)) (UniProt P08047); assay: co-IP; data not shown; SiHa cells with or without IFN-α treatment, similar co-immunoprecipitation assay
[2] = target: Sp1 (endogenous, human cells) (human (endogenous in U2OS and SiHa)) (UniProt P08047); assay: co-IP; U2OS/PML4 cells after induction of PML4 with ZnSO4; lysis and washes in RIPA buffer; immunoprecipitation with anti-Sp1 antibody (normal rabbit IgG as negative control), Western blot with PML4-specific antibody
[3] = target: PML4 (transfected into PML-/- MEFs) (UniProt P29590); assay: co-IP; PML-/- MEFs co-transfected with PMLIV and FLAG-Sp1-HA or FLAG-Sp1K16R-HA, lysed after 24 h; immunoprecipitation with anti-PML polyclonal antibody, IgG control; Western blot with anti-HA monoclonal antibody

binding [1]: binds
Substance: PML (endogenous, SiHa cells) (from UniProt P29590 1-882)

binding [2]: binds
Substance: PML4 (induced in the stable cell line U2OS/PML4) (from UniProt P29590-5 1-633)

binding [3]: binds
Substance: FLAG-Sp1-HA (from UniProt P08047 1-785)
